Reference: the supplement of paper PMC6411743
± gives the standard deviation of the averaged measurements. This is a selection; strong and weak results do not stand in their true shares.

By UniProt entry, the sequences of proteins in these tests, tags left out. Where a name states a change or a piece, a line headed by the entry shows the natural chain unless it says otherwise.
UniProt Q6UN15: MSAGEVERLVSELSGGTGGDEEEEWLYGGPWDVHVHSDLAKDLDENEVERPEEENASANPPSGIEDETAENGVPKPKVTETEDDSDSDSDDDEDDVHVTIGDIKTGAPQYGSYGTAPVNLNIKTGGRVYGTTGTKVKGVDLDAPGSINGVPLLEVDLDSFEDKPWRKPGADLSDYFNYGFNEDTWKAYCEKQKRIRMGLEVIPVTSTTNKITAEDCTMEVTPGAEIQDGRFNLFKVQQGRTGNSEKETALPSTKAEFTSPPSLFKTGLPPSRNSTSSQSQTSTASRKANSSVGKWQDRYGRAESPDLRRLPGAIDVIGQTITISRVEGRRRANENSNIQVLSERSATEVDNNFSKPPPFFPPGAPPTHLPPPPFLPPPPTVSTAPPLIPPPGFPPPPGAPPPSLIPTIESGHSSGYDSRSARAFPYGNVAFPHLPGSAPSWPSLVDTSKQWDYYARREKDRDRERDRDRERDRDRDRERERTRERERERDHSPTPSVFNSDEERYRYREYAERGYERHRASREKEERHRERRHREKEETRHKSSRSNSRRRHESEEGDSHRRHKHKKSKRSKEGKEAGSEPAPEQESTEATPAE
UniProt Q7L1V2: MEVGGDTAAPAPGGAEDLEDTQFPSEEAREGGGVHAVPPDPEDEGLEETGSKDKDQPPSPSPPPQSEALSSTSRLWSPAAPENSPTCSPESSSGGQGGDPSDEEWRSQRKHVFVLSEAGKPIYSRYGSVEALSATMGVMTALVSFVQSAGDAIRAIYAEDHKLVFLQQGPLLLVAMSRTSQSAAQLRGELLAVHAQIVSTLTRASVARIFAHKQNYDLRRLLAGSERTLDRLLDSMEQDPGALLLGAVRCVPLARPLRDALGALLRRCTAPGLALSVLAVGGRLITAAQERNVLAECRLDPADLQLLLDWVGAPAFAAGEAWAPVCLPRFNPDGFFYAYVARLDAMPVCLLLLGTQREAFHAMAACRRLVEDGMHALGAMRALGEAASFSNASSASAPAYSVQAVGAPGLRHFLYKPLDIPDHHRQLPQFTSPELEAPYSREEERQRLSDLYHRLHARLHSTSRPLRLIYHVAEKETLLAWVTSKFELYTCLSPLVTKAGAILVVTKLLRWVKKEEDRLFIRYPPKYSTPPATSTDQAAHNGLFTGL
UniProt Q71F56: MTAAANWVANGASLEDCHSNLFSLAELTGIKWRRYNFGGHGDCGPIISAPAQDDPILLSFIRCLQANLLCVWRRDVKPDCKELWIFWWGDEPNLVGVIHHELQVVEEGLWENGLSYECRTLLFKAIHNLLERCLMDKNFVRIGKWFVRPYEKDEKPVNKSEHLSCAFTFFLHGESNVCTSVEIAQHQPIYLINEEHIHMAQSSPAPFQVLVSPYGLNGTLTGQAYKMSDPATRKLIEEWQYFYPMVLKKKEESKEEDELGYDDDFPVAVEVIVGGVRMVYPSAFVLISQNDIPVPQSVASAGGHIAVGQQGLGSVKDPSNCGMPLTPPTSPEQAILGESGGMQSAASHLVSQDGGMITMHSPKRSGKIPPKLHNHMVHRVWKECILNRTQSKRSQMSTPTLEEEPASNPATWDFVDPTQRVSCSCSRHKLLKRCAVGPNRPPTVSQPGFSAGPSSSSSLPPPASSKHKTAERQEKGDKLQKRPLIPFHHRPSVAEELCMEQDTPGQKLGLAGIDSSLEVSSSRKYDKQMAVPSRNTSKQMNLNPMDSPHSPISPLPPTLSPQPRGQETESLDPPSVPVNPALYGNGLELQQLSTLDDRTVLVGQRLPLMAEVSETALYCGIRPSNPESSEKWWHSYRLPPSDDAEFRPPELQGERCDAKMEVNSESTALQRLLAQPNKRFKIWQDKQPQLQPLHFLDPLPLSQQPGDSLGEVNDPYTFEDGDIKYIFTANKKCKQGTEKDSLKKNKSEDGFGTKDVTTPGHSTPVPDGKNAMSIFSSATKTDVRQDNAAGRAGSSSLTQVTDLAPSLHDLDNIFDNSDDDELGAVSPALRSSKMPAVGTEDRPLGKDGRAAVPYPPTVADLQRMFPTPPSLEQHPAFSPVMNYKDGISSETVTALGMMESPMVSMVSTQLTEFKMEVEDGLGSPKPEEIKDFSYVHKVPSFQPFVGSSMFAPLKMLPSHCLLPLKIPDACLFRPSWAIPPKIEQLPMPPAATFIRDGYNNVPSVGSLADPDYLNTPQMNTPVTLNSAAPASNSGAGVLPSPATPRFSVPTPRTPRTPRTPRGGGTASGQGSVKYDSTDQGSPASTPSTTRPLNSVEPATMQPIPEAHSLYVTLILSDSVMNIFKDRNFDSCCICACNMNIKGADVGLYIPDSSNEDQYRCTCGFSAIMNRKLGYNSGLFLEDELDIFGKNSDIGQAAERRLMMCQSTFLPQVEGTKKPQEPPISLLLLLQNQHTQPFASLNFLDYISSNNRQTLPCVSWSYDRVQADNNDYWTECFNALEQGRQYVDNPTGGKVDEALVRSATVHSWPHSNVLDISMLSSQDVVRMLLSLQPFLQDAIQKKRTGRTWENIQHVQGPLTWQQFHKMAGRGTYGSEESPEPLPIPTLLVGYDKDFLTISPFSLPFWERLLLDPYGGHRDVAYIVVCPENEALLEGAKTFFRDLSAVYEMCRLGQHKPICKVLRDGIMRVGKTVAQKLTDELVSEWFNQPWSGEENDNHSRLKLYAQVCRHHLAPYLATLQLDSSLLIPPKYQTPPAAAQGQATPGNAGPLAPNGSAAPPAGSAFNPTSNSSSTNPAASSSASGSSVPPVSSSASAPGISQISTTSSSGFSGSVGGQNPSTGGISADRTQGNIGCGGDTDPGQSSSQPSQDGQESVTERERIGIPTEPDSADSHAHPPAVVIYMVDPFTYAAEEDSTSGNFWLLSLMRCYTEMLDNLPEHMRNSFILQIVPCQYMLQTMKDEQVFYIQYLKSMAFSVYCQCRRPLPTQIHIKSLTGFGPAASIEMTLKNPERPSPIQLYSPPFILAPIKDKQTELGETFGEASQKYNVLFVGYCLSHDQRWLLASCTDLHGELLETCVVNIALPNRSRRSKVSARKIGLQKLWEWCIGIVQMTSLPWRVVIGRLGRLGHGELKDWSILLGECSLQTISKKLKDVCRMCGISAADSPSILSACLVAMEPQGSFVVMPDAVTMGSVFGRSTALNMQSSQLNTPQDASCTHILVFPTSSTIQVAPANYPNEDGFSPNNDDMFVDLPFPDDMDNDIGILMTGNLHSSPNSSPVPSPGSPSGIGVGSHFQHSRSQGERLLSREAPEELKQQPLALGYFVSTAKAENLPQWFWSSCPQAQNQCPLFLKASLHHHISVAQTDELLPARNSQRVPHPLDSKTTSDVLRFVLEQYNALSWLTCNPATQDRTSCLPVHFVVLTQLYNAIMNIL
UniProt Q86VN1: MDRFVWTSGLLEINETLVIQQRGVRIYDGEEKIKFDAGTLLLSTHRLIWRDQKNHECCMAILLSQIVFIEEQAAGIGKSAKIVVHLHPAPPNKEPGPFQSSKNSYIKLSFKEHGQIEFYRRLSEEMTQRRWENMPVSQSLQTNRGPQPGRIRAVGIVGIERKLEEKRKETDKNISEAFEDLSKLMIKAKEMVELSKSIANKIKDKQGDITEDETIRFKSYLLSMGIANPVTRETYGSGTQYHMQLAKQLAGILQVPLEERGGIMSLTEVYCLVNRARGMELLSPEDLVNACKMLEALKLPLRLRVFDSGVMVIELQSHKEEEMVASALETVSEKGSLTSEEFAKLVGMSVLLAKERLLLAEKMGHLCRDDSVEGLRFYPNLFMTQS
UniProt Q8IXJ9: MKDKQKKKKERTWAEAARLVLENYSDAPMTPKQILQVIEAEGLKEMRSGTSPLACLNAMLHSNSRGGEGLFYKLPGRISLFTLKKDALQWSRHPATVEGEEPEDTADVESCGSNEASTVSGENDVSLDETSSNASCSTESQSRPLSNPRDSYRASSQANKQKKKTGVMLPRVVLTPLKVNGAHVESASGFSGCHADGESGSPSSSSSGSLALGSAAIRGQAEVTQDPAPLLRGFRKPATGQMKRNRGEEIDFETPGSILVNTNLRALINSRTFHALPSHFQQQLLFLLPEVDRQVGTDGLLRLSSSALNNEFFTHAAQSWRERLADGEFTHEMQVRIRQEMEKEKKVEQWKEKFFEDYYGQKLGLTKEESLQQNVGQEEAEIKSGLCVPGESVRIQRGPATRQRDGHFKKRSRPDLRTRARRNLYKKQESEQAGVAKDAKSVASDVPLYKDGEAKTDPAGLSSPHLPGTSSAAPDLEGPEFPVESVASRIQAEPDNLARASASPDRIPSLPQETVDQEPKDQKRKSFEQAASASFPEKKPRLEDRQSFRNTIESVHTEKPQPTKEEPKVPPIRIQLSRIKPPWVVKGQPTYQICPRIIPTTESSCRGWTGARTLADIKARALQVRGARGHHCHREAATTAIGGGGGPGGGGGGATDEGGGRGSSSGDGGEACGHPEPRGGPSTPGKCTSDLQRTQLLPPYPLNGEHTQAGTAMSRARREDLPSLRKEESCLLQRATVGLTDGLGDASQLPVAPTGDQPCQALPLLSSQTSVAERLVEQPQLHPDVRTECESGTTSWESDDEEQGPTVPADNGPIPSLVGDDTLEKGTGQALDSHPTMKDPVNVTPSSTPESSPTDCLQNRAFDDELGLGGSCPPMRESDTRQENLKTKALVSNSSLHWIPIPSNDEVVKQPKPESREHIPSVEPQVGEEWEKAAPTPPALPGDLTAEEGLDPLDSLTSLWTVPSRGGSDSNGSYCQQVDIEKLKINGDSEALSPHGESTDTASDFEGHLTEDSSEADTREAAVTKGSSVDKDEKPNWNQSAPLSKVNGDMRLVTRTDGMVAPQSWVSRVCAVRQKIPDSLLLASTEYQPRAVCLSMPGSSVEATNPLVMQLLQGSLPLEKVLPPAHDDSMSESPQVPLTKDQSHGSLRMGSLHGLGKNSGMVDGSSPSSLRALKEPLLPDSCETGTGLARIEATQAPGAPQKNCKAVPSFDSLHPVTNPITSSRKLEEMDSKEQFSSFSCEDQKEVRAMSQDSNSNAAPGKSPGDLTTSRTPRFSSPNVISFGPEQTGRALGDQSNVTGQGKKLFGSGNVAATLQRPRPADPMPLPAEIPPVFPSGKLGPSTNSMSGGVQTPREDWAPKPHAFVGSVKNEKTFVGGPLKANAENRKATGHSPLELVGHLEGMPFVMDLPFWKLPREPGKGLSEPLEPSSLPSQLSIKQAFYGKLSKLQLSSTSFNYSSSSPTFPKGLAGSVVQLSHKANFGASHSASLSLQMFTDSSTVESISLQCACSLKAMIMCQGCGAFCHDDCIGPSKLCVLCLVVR
UniProt Q6ZNB6: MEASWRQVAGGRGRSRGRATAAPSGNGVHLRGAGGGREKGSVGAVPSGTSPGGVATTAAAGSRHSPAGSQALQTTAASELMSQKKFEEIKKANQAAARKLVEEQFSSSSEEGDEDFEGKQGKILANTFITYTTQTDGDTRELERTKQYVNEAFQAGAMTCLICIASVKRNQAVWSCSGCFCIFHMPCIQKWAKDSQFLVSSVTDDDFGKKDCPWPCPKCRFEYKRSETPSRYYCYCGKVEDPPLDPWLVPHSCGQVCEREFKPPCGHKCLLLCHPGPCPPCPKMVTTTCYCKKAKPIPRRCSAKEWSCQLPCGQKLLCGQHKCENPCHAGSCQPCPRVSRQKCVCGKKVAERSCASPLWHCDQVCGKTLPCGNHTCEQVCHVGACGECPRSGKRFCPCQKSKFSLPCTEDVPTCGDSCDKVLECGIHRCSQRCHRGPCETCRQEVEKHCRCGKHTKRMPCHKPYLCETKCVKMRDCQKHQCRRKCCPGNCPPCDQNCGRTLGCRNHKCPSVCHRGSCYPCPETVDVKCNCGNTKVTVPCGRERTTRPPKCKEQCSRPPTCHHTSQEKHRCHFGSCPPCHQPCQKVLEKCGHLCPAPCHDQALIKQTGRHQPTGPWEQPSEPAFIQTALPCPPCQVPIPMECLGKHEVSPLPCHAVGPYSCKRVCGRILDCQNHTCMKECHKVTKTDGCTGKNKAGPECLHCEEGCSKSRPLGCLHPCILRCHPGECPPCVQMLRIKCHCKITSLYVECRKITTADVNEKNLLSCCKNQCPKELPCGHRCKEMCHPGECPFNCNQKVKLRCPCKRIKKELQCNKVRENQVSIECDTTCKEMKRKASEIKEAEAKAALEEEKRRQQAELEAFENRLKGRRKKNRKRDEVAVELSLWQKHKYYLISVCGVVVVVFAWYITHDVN
UniProt Q7Z4H3: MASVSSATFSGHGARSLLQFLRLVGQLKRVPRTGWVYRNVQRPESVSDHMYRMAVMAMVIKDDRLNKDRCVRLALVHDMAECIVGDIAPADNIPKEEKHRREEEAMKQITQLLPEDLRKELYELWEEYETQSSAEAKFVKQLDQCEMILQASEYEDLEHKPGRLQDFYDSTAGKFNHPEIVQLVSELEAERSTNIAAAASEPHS
UniProt Q7LBR1: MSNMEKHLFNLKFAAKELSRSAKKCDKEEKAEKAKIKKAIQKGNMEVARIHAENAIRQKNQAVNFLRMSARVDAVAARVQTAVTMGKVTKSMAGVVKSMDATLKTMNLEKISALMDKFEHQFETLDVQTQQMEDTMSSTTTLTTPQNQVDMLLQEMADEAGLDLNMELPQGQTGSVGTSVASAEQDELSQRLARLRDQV

Compound: Nc1ncnc2c1ncn2[C@@H]1O[C@H](COP(=O)(O)OP(=O)(O)OP(=O)(O)O)[C@@H](O)[C@H]1O [adenosine triphosphate]
Experiment: NP40-soluble protein abundance relative to vehicle (solubility fold change) (ratio); higher = more soluble protein in presence of ATP
In short: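 Data come from three independent experiments in which Dounce-homogenised Jurkat crude lysate was treated at eight concentrations from 0.1 to 10 mM. Treatment ran 10 min at room temperature and then 3 min at 37 °C, after which 0.8% NP40 and benzonase were added for 60 min at 4 °C before ultracentrifugation. The supernatant underwent TMT labelling and LC-MS/MS, and vsn-normalised intensities were expressed as fold change against the detergent-processed vehicle in each replicate.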

Target	NP40-soluble protein abundance (concentration: 1mM)	NP40-soluble protein abundance (concentration: 2mM)	NP40-soluble protein abundance (concentration: 4mM)	NP40-soluble protein abundance (concentration: 6mM)	NP40-soluble protein abundance (concentration: 8mM)	NP40-soluble protein abundance (concentration: 10mM)
GLRX5 (UniProt Q86SX6)	0.874 ± 0.11	0.874 ± 0.1	0.852 ± 0.088	0.93 ± 0.083	0.855 ± 0.045	0.799 ± 0.12
TMEM65 (UniProt Q6PI78)	1.01 ± 0.093	0.977 ± 0.024	0.937 ± 0.075	0.93 ± 0.082	0.945 ± 0.047	0.968 ± 0.034
UniProt Q6UN15 and related entries	1.12 ± 0.18	1.17 ± 0.23	1.3 ± 0.24	1.43 ± 0.27	1.36 ± 0.18	1.43 ± 0.21
DARS2 (UniProt Q6PI48)	0.971 ± 0.057	0.98 ± 0.07	0.98 ± 0.045	0.946 ± 0.11	1.02 ± 0.048	0.978 ± 0.053
MON1B (UniProt Q7L1V2)	0.855 ± 0.2	1.02 ± 0.089	1.01 ± 0.068	0.889 ± 0.25	0.89 ± 0.19	1.01 ± 0.07
UniProt Q6PI47	0.675 ± 0.084	0.747 ± 0.065	0.885 ± 0.15	1.04 ± 0.088	1.14 ± 0.17	1.32 ± 0.23
UBE2Q1 (UniProt Q7Z7E8)	0.959 ± 0.045	0.972 ± 0.036	0.934 ± 0.037	0.955 ± 0.054	0.932 ± 0.05	0.964 ± 0.019
MED13L (UniProt Q71F56)	1.08 ± 0.045	1.04 ± 0.061	1.07 ± 0.11	1.07 ± 0.069	1.05 ± 0.095	1.08 ± 0.09
PARS2 (UniProt Q7L3T8)	1.06 ± 0.1	1.1 ± 0.024	1.14 ± 0.074	1.03 ± 0.1	1.08 ± 0.11	1.11 ± 0.065
CENPQ (UniProt Q7L2Z9)	1.09 ± 0.14	1.128 ± 0.0069	1.26 ± 0.17	1.31 ± 0.25	1.42 ± 0.14	1.33 ± 0.089
UniProt Q7LBC6	0.982 ± 0.051	0.989 ± 0.012	0.9627 ± 0.0039	1 ± 0.01	0.95 ± 0.034	0.976 ± 0.025
UniProt Q86VN1 and related entries	1.01 ± 0.098	0.997 ± 0.054	0.983 ± 0.047	0.951 ± 0.099	0.986 ± 0.052	0.979 ± 0.013
Q76L82 and related entries (UniProt Q8IXJ9+Q76L82)	1.11 ± 0.081	1.04 ± 0.11	1.03 ± 0.18	1.09 ± 0.15	0.994 ± 0.16	1.1 ± 0.15
NFXL1 (UniProt Q6ZNB6)	1.03 ± 0.061	1.07 ± 0.04	1.1 ± 0.096	1.15 ± 0.047	1.22 ± 0.08	1.12 ± 0.028
HDDC2 (UniProt Q7Z4H3)	0.92 ± 0.13	0.903 ± 0.075	0.904 ± 0.097	0.877 ± 0.1	0.892 ± 0.028	0.816 ± 0.17
ZFYVE16 (UniProt Q7Z3T8)	1.01 ± 0.032	0.985 ± 0.028	0.992 ± 0.015	1.019 ± 0.0042	0.929 ± 0.0072	0.961 ± 0.023
CHMP1B (UniProt Q7LBR1)	0.963 ± 0.062	0.991 ± 0.022	0.945 ± 0.061	0.981 ± 0.057	0.94 ± 0.029	0.902 ± 0.042

Reprinted at random: two entries already listed, in no set order.
Target	NP40-soluble protein abundance (concentration: 1mM)	NP40-soluble protein abundance (concentration: 2mM)	NP40-soluble protein abundance (concentration: 4mM)	NP40-soluble protein abundance (concentration: 6mM)	NP40-soluble protein abundance (concentration: 8mM)	NP40-soluble protein abundance (concentration: 10mM)
CHMP1B (UniProt Q7LBR1)	0.963 ± 0.062	0.991 ± 0.022	0.945 ± 0.061	0.981 ± 0.057	0.94 ± 0.029	0.902 ± 0.042
HDDC2 (UniProt Q7Z4H3)	0.92 ± 0.13	0.903 ± 0.075	0.904 ± 0.097	0.877 ± 0.1	0.892 ± 0.028	0.816 ± 0.17
